Measured values reported in paper PMC12167495.
No constants are given. Whether binding was seen depends on the method and setting. In cells and extracts the contact can be indirect. Some entries that bind do so weakly or less than the wild type.

Amino acid sequences for entries named in this document (tags omitted). Residues count along the entry.
UniProt Q91ZX7, residues 20-4545: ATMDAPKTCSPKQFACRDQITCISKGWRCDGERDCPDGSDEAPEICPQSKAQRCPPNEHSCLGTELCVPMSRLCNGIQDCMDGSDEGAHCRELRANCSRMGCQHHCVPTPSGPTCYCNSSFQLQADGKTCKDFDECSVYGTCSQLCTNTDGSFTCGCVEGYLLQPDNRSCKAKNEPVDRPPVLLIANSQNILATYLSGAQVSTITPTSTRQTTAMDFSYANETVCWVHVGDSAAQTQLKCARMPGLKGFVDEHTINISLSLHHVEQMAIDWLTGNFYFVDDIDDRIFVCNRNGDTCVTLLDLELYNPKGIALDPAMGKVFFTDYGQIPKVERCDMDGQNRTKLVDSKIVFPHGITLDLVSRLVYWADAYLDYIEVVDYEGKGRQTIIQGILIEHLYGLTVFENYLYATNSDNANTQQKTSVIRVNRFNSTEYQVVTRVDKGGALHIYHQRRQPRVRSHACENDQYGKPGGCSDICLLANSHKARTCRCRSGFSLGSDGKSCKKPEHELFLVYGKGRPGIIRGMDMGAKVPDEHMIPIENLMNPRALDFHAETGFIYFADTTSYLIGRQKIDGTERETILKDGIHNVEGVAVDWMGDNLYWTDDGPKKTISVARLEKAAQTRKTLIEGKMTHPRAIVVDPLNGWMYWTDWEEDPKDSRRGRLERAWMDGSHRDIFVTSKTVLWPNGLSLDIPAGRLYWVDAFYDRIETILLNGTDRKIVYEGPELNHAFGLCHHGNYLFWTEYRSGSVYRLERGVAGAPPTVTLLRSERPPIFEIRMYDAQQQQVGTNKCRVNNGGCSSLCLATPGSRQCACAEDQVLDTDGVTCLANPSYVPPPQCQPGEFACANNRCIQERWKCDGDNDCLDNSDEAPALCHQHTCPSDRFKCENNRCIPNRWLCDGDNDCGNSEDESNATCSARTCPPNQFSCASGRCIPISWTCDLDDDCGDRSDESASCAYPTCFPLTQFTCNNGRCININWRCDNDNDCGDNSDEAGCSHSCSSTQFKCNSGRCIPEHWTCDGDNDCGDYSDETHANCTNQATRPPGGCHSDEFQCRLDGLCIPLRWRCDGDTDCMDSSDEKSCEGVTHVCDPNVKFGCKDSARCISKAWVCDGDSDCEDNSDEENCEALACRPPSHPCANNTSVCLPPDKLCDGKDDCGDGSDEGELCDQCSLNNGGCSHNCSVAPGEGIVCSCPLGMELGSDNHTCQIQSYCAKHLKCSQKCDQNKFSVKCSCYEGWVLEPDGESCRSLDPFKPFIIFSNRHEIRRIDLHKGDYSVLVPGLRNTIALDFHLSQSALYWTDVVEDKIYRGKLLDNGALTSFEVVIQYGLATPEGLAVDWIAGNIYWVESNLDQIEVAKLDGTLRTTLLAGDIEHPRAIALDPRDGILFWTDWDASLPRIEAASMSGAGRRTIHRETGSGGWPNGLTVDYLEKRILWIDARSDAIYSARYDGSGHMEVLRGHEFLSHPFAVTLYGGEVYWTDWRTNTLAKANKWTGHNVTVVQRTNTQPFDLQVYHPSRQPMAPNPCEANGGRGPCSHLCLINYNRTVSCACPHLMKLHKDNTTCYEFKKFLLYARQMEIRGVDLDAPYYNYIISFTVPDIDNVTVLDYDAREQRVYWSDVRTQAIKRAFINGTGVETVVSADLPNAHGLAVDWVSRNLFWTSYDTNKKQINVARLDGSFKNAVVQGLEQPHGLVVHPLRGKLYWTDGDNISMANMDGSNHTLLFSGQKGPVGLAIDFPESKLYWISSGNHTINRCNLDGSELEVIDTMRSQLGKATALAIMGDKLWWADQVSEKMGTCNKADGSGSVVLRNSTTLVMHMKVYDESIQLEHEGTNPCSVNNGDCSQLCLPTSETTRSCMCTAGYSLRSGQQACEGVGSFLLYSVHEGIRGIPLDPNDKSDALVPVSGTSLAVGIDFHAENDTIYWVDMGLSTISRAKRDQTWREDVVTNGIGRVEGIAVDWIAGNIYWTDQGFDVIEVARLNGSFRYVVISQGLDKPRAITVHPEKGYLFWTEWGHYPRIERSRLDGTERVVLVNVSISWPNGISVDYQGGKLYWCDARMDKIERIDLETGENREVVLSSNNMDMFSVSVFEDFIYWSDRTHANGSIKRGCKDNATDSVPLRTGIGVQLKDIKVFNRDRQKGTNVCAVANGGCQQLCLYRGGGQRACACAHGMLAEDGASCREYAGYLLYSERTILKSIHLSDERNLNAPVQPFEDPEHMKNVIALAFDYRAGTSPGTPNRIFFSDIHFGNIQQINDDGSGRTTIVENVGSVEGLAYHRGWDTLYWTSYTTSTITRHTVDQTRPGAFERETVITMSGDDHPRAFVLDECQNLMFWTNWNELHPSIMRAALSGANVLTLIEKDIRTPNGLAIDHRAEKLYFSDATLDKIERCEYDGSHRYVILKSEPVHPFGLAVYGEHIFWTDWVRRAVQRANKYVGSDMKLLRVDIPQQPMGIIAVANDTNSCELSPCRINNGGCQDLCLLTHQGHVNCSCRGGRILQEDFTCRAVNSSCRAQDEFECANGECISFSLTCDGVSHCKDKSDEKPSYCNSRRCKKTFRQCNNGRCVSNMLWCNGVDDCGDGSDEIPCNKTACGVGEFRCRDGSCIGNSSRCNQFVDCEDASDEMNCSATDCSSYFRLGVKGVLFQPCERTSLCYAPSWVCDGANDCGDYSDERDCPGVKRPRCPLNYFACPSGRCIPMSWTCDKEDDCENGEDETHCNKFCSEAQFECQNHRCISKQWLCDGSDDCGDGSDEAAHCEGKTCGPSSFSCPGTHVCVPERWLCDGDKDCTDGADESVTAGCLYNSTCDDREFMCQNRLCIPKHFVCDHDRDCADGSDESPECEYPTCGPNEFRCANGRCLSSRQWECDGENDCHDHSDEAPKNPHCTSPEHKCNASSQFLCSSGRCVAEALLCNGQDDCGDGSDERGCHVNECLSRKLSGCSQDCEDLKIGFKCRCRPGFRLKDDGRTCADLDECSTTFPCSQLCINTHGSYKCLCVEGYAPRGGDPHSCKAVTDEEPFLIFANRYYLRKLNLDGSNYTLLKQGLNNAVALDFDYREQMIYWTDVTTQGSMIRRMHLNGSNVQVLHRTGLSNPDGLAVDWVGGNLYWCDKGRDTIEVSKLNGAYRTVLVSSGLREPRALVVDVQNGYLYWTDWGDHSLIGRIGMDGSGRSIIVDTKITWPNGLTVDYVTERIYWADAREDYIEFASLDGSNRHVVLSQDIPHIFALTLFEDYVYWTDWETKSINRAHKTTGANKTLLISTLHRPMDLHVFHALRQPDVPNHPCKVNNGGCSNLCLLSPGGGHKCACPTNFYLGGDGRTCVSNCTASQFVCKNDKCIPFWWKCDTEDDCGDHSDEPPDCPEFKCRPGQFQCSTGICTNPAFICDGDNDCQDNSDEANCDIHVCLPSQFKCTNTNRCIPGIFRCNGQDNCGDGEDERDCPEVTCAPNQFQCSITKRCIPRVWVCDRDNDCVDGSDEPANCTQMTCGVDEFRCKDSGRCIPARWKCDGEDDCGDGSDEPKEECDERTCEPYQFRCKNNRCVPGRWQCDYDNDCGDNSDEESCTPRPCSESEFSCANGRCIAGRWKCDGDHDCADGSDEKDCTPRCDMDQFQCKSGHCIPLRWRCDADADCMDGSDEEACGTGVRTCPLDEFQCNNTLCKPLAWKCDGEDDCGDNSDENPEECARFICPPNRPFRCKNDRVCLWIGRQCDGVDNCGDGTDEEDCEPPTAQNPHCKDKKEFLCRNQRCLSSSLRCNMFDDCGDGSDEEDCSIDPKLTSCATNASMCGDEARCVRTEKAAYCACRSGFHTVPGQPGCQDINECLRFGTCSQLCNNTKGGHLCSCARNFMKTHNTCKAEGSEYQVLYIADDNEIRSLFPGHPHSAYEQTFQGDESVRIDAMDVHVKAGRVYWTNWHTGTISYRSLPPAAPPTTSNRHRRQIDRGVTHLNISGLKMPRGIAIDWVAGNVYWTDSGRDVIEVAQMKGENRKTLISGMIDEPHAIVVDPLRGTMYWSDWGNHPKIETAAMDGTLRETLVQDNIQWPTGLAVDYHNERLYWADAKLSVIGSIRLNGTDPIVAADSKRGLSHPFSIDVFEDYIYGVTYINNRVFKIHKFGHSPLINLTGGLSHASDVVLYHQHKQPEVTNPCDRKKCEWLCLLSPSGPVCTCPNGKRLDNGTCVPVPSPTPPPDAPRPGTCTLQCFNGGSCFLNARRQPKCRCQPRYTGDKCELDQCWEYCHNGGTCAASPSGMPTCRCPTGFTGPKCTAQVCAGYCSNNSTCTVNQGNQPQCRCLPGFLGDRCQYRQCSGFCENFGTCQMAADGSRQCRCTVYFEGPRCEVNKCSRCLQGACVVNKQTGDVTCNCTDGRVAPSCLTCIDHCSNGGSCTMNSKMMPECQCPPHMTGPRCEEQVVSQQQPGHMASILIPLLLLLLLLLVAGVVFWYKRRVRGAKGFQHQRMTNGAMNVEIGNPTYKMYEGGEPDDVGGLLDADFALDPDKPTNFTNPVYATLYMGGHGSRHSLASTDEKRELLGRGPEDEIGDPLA

T1: plasminogen-activating inhibitor-1 (mouse (endogenous in C57BL/6 liver and primary mouse hepatocytes)) (UniProt P22777)
T1 sequence: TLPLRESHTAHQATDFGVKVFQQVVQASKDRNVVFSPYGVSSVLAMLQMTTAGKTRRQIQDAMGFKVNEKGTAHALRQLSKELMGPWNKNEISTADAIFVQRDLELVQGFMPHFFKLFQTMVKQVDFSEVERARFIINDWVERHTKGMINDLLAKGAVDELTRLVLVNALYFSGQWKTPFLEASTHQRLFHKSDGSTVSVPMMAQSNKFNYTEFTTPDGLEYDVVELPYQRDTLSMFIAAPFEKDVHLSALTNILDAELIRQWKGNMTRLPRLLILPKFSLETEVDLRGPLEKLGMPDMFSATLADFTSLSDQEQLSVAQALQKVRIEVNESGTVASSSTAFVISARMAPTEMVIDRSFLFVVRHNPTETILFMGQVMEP


Columns and labels:
[1] = biological target: T1, plasminogen-activating inhibitor-1 (mouse (endogenous in C57BL/6 liver and primary mouse hepatocytes)); test: co-IP; PAI-1 immunoprecipitated with an anti-PAI-1 antibody from total liver lysates of control, FOLFOX-treated and FOLFOX + SAMe-treated mice; Western blot for uPAR, LRP-1 and vitronectin
[2] = biological target: T1, plasminogen-activating inhibitor-1 (mouse (endogenous in C57BL/6 liver and primary mouse hepatocytes)); test: co-IP; PAI-1 immunoprecipitated with an anti-PAI-1 antibody from lysates of primary mouse hepatocytes treated with 2 mM SAMe, 10 ng/mL IL-1β, alone or together, for 24 hours; Western blot for uPAR, LRP-1 and vitronectin
[3] = biological target: T1, plasminogen-activating inhibitor-1 (mouse (endogenous in C57BL/6 liver and primary mouse hepatocytes)); test: co-IP; PAI-1 immunoprecipitated with an anti-PAI-1 antibody from total liver lysates of control, FOLFOX-treated and FOLFOX + SAMe-treated mice; Western blot for uPAR, LRP-1 and vitronectin; remark: listed apart in the source

binding [1]	binding [2]	binding [3]	Molecule
binds	binds		low-density lipoprotein receptor-related protein-1 (from UniProt Q91ZX7 20-4545)
	binds	binds	vitronectin (protein, UniProt P29788 20-478) DQESCKGRCTQGFMASKKCQCDELCTYYQSCCADYMEQCKPQVTRGDVFTMPEDDYWSYDYVEEPKNNTNTGVQPENTSPPGDLNPRTDGTLKPTAFLDPEEQPSTPAPKVEQQEEILRPDTTDQGTPEFPEEELCSGKPFDAFTDLKNGSLFAFRGQYCYELDETAVRPGYPKLIQDVWGIEGPIDAAFTRINCQGKTYLFKGSQYWRFEDGVLDPGYPRNISEGFSGIPDNVDAAFALPAHRYSGRERVYFFKGKQYWEYEFQQQPSQEECEGSSLSAVFEHFALLQRDSWENIFELLFWGRSSDGAREPQFISRNWHGVPGKVDAAMAGRIYVTGSLSHSAQAKKQKSKRRSRKRYRSRRGRGHRRSQSSNSRRSSRSIWFSLFSSEESGLGTYNNYDYDMDWLVPATCEPIQSVYFFSGDKYYRVNLRTRRVDSVNPPYPRSIAQYWLGCPTSEK
	binds	binds	urokinase plasminogen activator receptor (receptor, UniProt P35456 24-298) LQCMQCESNQSCLVEECALGQDLCRTTVLREWQDDRELEVVTRGCAHSEKTNRTMSYRMGSMIISLTETVCATNLCNRPRPGARGRAFPQGRYLECASCTSLDQSCERGREQSLQCRYPTEHCIEVVTLQSTERSLKDEDYTRGCGSLPGCPGTAGFHSNQTFHFLKCCNYTHCNGGPVLDLQSFPPNGFQCYSCEGNNTLGCSSEEASLINCRGPMNQCLVATGLDVLGNRSYTVRGCATASWCQGSHVADSFPTHLNVSVSCCHGSGCNSPTG
